# Measurements as given in PubChem BioAssay AID540256 (National Center for Advancing Translational Sciences (NCATS), 2011).
# Among all 300,000 compounds or so, about 3,700 (1.2%) were called active. The inconclusive results got no clear call from the source; some entries with a clear call stand among them for comparison. Calls come from the whole dose curve; tested in HEK293 cells. Where the call is inconclusive, the potency comes from a doubtful curve fit.
# Assay: qHTS for Inhibitors of binding or entry into cells for Lassa Virus; note: nearly all actives have a fitted effect of over 50% in size
# Conditions: Lassa virus pseudotype entry inhibition, cell reporter; series mostly up to 37.9 µM
# Potency is the fitted concentration of half-maximal effect.
row,Compound,Potency
1,COc1ccccc1OCCSc1nc2ccccc2c(=O)[nH]1,inactive
2,COC(=O)c1c(-c2ccccc2)c[nH]c1C,inactive
3,CC(=O)Oc1ccc2c(=O)c(-c3nc4ccccc4s3)coc2c1,inactive
4,CCCc1nn2c(=O)cc(COC(=O)c3cccc(NC(=O)c4ccc(OCC)cc4)c3)nc2s1,"inconclusive: 4.47 µM [activator, partial curve, poor fit]"
5,COc1ccccc1OCC(=O)Nc1cc(S(=O)(=O)N2CCCCC2)ccc1N1CCCCC1,"inconclusive: 25.1 µM [inhibitor, single point]"
6,CC(CCc1ccccc1)NCc1ccncc1 (stereo not given),"inconclusive: 0.73 µM [activator, full curve, poor fit]"
7,CN(C)c1ccc(Nc2ccc([N+](=O)[O-])cn2)cc1,inactive
8,O=C(Nc1ccc(S(=O)(=O)N2CCCCC2)cc1)C1CC(=O)N(c2ccc(Cl)cc2)C1 (stereo not given),"inconclusive: 11.2 µM [inhibitor, partial curve, poor fit]"
9,COc1cc(C2c3c(-c4cc(C)ccc4O)n[nH]c3C(=O)N2Cc2ccco2)cc(OC)c1OC (stereo not given),"inconclusive: 1.58 µM [inhibitor, full curve, poor fit]"
10,S=C(Nc1ccc(Oc2ccccc2)cc1)NC1CCCCCC1,"inconclusive: 12.6 µM [inhibitor, partial curve]"
11,CN(C)C(=O)CN1C(=O)C2CC=C(Cl)CC2C1=O (stereo not given),"inconclusive: 0.562 µM [inhibitor, single point]"
12,CN(C)CCNc1ncnc2sc(-c3ccccc3)cc12,"inconclusive: 35.5 µM [inhibitor, single point]"
13,COc1cccc(-n2c(SCC(=O)Nc3ccc4c(c3)OCO4)nc3c([nH]c4ccccc43)c2=O)c1,inactive
14,CN(CCc1cn[nH]c1)C(=O)CC1C(=O)NCCN1Cc1cccc(Oc2ccccc2)c1 (stereo not given),"inconclusive: 7.08 µM [activator, full curve, poor fit]"
15,COc1cc(OC)cc(C(=O)N2CCN(C(=O)COc3ccc(C)cc3)CC2)c1,inactive
16,COc1ccc(NS(=O)(=O)c2ccc(F)c(Cl)c2)cn1,"inconclusive: 6.31 µM [inhibitor, single point]"
17,CC1CCCCN1C(=S)Nc1ccc2nc3n(c(=O)c2c1)CCCCC3 (stereo not given),"inconclusive: 0.112 µM [activator, full curve, poor fit]"
18,COc1ccccc1/C=C/CN1CCOCC1,inactive
19,Cc1ccc(S(=O)(=O)/N=C2/C=C(Sc3ncn[nH]3)C(=O)c3ccccc32)cc1,active: 2.91 µM
20,COCc1cc(=O)n2[nH]c(C)cc2n1,inactive
21,O=C(CSc1ccc(-c2ccc(F)cc2)nn1)N1CCCc2ccccc21,"inconclusive: 3.26 µM [inhibitor, partial curve, poor fit]"
22,Fc1ccc(-c2nc3n(n2)Cc2ccccc2-3)cc1,active: 12.6 µM
23,O=C(NCCN1CCN(C(=O)NC2CCCCC2)CC1)NC1CCCCC1,inactive

row,Compound,Potency
1,CC1(NC(=O)c2cc(-c3cccs3)nn2-c2ccccc2)CCS(=O)(=O)C1 (stereo not given),"inconclusive: 5.62 µM [inhibitor, full curve, poor fit]"
2,COC(=O)c1ccc(NC(=O)CCCN2C(=O)NC(C)(C)C2=O)cc1,"inconclusive: 2.51 µM [inhibitor, partial curve, poor fit]"
3,O=C(O)CNC(=O)c1nc(-c2ccccc2)n(-c2ccccc2)n1,"inconclusive: 1.58 µM [inhibitor, partial curve, poor fit]"
4,CCN(CC)CCCNc1nc(C)cc(COC)c1C#N,inactive
5,O=c1[nH][nH]c2c(N=Cc3ccccc3O)ccc(F)c12,"inconclusive: 8.91 µM [inhibitor, partial curve]"
6,CSc1nc2c(c(=O)n1-c1ccccc1)SCC2,"inconclusive: 6.51 µM [inhibitor, single point]"
7,COc1ccc(CN(Cc2ccco2)C(=O)COc2ccccc2Cl)cc1,"inconclusive: 2.24 µM [inhibitor, full curve]"
8,O=S(=O)(c1cccc(Cl)c1)n1c(/C=C/c2ccccc2Cl)nc2ccccc21,"inconclusive: 5.62 µM [inhibitor, full curve, poor fit]"
9,CN(C)c1cccc(C(=O)N/N=C/c2ccsc2)c1,"inconclusive: 2.51 µM [activator, partial curve, poor fit]"
10,CN(C)Cc1cc(C(F)(F)F)ccc1C(O)(c1ccccc1)c1ccccc1,"inconclusive: 35.5 µM [inhibitor, single point]"
11,CC(=O)NC(c1ccc(Cl)cc1)c1c(O)ccc2ccc(O)cc12 (stereo not given),inactive
12,Cc1ccc(-c2c3c(=O)n(C)c(=O)n(C)c3c3c(-c4cccc(C)c4)nc4ccccc4n23)cc1,"inconclusive: 20 µM [activator, single point]"
13,COc1ccccc1C(=O)Nc1nc2ccc(S(C)(=O)=O)cc2s1,inactive
14,O=C(NC1CCCCCC1)c1cccs1,inactive
15,CCn1c(CNC(=O)c2ccc(OC)c(OC)c2)nnc1SCC(=O)Nc1ccc(OC)cc1,"inconclusive: 1.41 µM [inhibitor, partial curve, poor fit]"
16,CCOC(=O)c1c(C)[nH]c(C)c1C(=O)COC(=O)/C=C/c1ccc(Cl)cc1,"inconclusive: 35.5 µM [inhibitor, single point]"
17,CCOC(=O)c1cc(-c2ccc(C)o2)nn1CCC#N,inactive
18,CCOP(=O)(OCC)c1nc(-c2cccc3ccccc23)oc1NCc1ccc(OC)cc1,"inconclusive: 35.5 µM [inhibitor, single point]"
19,Cc1cc(C)cc(OCC(=O)N(Cc2ccc(N(C)C)cc2)C2CCS(=O)(=O)C2)c1 (stereo not given),"inconclusive: 1.26 µM [inhibitor, single point]"
20,CC(=O)C1=C(C)N(Cc2ccccc2)C(=O)NC1CCc1ccccc1 (stereo not given),inactive
21,COc1ccc(NC(=O)c2c(NCc3cccs3)sc3c2CCCC3)c(OC)c1,"inconclusive: 28.2 µM [inhibitor, partial curve, poor fit]"
22,COc1ccc(/C=N/NC(=O)c2[nH]c(C)c(C(=O)N/N=C/c3ccc(OC)cc3)c2C)cc1,"inconclusive: 10 µM [inhibitor, partial curve]"

# Part of the list above, tab-delimited.
row	Compound	Potency
13	COc1cccc(-n2c(SCC(=O)Nc3ccc4c(c3)OCO4)nc3c([nH]c4ccccc43)c2=O)c1	inactive
23	O=C(NCCN1CCN(C(=O)NC2CCCCC2)CC1)NC1CCCCC1	inactive
